Laboratory results: US20210015891A1
No constants are given. Whether binding was seen depends on the method and setting. Some binding calls cover weakened binding; strength is not graded here.

Tests used:
[1] = biological target: T1, Mouse IL-18BP (amino acids 31-194) (mouse) (UniProt Q9Z0M9); assay: SPR, immobilized biotinylated mIL-18BP, recombinant mIL-18 as analyte, single-cycle injections of 0.125 to 2 nM
T1 sequence (chain, biotin on the AviTag (enzymatic biotinylation)): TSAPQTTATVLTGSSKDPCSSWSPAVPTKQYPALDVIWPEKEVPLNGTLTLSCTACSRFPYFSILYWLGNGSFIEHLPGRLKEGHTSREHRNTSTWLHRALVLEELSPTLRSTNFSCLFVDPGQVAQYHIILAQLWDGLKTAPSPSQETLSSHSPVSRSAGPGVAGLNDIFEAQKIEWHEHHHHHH

[2] = biological target: T2, Mouse IL-18Rα ectodomain (amino acids 19-329) (mouse) (UniProt Q61098); assay: flow cytometry binding isotherm: yeast-displayed mouse IL-18 variant stained with titrated mIL-18Rα, 10^-9.5 to 10^-6 M, receptor binding (% max)
T2 sequence (chain, biotin on the AviTag (enzymatic biotinylation)): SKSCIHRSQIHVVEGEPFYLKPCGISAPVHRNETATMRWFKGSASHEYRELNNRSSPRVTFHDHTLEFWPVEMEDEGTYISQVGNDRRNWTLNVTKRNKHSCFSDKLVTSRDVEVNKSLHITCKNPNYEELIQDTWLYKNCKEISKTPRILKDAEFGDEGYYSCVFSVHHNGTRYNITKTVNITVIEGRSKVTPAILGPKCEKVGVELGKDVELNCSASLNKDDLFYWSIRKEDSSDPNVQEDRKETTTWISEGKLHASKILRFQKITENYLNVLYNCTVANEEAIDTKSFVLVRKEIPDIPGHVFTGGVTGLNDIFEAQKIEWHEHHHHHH

[3] = biological target: T1, Mouse IL-18BP (amino acids 31-194) (mouse); assay: flow cytometry binding isotherm: yeast-displayed mouse IL-18 variant stained with titrated mIL-18BP, 10^-9.5 to 10^-6 M, receptor binding (% max)
[4] = biological target: T2, Mouse IL-18Rα ectodomain (amino acids 19-329) (mouse); assay: on-yeast binding isotherm, flow cytometry (FIG. 11A)
[5] = biological target: T2, Mouse IL-18Rα ectodomain (amino acids 19-329) (mouse); assay: yeast binding isotherms and SPR

Measured: binding

B1: mouse Interleukin-18 wild type (mature form) (ligand)
chain: NFGRLHCTTAVIRNINDQVLFVDKRQPVFEDMTDIDQSASEPQTRLIIYMYKDSEVRGLAVTLSVKDSKMSTLSCKNKIISFEEMDPPENIDDIQSDLIFFQKRVPGHNKMEFESSLYEGHFLACQKEDDAFKLILKKKDENGDKSVMFTLTNLHQS
binds: [1] | [2] | [3]

B2: mCS2, murine DR-IL-18 consensus variant (ligand)
chain: HFGRLHCTTAVIRNINDQVLFVDKRQPVFEDMTDIDQSASEPQTRLIIYAYGDSRARGKAVTLSVKDSKMSTLSCKNKIISFEEMDPPENIDDIQSDLIFFQKRVPGHNKMEFESSLYEGHFLACQKEDDAFKLILKKKDENGDKSVMFTLTNLHQS
binds: [4] | [2] | [5]

B3: mE8, murine DR-IL-18 variant (ligand)
chain: NFGRLHCTTAVIRNINDQVLFVDKRQPVFEDMTDIDQSASEPQTRLIIYVYTDGRRRGKAVTLSVKDSKMSTLSCKNKIISFEEMDPPENIDDIQSDLIFFQKKVPGHDKMEFESSLYEGHFLACQKEDDAFKLILKKKDENGDKSVMFTLTNLHQS
binds: [4] | [2] | [5]

B4: mA7, murine DR-IL-18 variant (ligand)
chain: YFGRLHCTTAVIRNINDQVLFVDKRQPVFEDMTDIDQSASEPQTRLIIYAYGDNRVRGKAVTLSVKDSKMSTLSCKNKIISFEEMDPPENIDDIQSDLIFFQKRVPGHNKMEFESSLYEGHFLACQKEDDAFKLILKKKDENGDKSVMFTLTNLHQS
binds: [4] | [2] | [5]

B5: mC1, murine DR-IL-18 variant (ligand)
chain: NFGRLHCTTAVIRNINDQVLFVDKRQPVFEDMTDIDQSASEPQTRLIIYAYVDRRLRGKAVTLSVKDSKMSTLSCKNKIISFEEMDPPENIDDIQSDLIFFQKKVPGHNKMEFESSLYEGHFLACQKEDDAFKLILKKKDENGDKSVMFTLTNLHQS
binds: [4] | [2] | [5]

B6: mCS1, murine DR-IL-18 consensus variant (ligand)
chain: NFGRLHCTTAVIRNINDQVLFVDKRQPVFEDMTDIDQSASEPQTRLIIYGYADSRVRGKAVTLSVKDSKMSTLSCKNKIISFEEMDPPENIDDIQSDLIFFQKRVPGHNKMEFESSLYEGHFLACQKEDDAFKLILKKKDENGDKSVMFTLTNLHQS
binds: [4] | [2] | [5]

B7: mB1, murine DR-IL-18 variant (ligand)
chain: HFGRLHCTTAVIRNINDQVLFVDKRQPVFEDMTDIDQSASEPQTRLIIYGYADSDARAKAVTLSVKDSKMSTLSCKNKIISFEEMDPPENIDDIQSDLIFFQKSVPGHNKMEFESSLYEGHFLACQKEDDAFKLILKKKDENGDKSVMFTVTNLHQS
binds: [4] | [2] | [5]
